Results on 54 compounds are retold here after PubChem BioAssay AID2685 (National Center for Advancing Translational Sciences (NCATS), 2010).

SMILES strings stand for the structures. The list shows a part of the results. These are further read-outs of the screen, such as a control signal, another cell line or another target. No call is given for them. Compounds called inactive in the main read-out are mostly missing here. Words in brackets tell the shape of the fitted curve; partial curves, single points and poor fits give uncertain potencies.

One may read the AC50 as the midpoint of the concentration-response curve, whichever way the signal moves. Higher therefore signals weaker potency.

A short description of the assay: qHTS Assay for Lipid Storage Modulators in Drosophila S3 Cells.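 On cell number change: cells counted by Cell Tracker Red CMTPX staining in the red channel.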 The note with it: BODIPY lipid droplet fluorescence, 18-24 h; for cell number change: measured here: cell count max response, cells fed with added oleic acid. An outline of the steps:
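Laser-scanning cytometry quantifies lipid droplet accumulation (500–530 nm total intensity; droplet/cell object ratio) in oleic acid-fed (400 uM added) Drosophila S3 cells treated with a concentration series. 20 uM Triacsin C defined 100% inhibition.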
In general terms: Quantitative high-throughput screening tests each substance at several concentrations.

Where [1] appears, read: measured here: cell number channel AC50, cells fed with added oleic acid.
Where [2] appears, read: measured here: lipid fluorescence (Fed channel) AC50, cells fed with added oleic acid.

Take `O=C(Nc1nnc(SCc2cccnc2)s1)C1CC(=O)N(c2ccccc2)C1` (stereo unspecified): the cell number change was 31.9%. Besides, the AC50 under setting [1] was 20 µM [rising, partial curve, poor fit]. Further, the AC50 under setting [2] is 0.282 µM [rising, full curve, poor fit].

`Cc1cc(NS(=O)(=O)c2ccc(NC(=S)NC(=O)c3ccc(F)cc3Cl)cc2)no1`: the cell number change is 57.7%. Moreover, the AC50 under setting [1] was 29.1 µM [rising, single point]. For the same compound, the AC50 under setting [2] is 0.326 µM [rising, partial curve, poor fit].

In the case of `COc1ccc(CN2CCn3nc(C(=O)NC(C)C)cc3C2=O)cc1`, the cell number change is -1.63%.

In the case of `Cc1cccc(OC(=O)c2ccc3nccnc3c2)c1`, the cell number change is -35.2%. Also, the concentration at half-maximal activity (AC50) under setting [1] was 0.411 µM [falling, full curve]. The concentration at half-maximal activity (AC50) under setting [2] is 29.1 µM [falling, single point].

Consider `CCOc1ccc(NC(=O)c2ccccc2OCC(=O)c2ccccc2)cc1`, for which the cell number change worked out at 84.3%. For the same compound, under setting [1], the AC50 is 2.31 µM [rising, full curve]. For the same compound, the AC50 under setting [2] was 3.66 µM [rising, full curve].

Take `CC1(C)Cc2c(sc(NC(=O)COc3ccc(Cl)cc3Cl)c2C(N)=O)C(C)(C)N1`: the cell number change is 4.83%. In addition, the AC50 under setting [2] was 0.0259 µM [rising, full curve, poor fit].

As for `CCn1cc(S(=O)(=O)c2ccccc2)c(=O)c2cc(F)c(N3CCN(C)CC3)cc21`, the cell number change was -44.7%. The AC50 under setting [1] is 29.1 µM [falling, single point].

As to `Cc1ccc(NCc2n[nH]c(=S)n2Cc2ccccc2)cc1Cl`, the cell number change is -33.3%. In addition, under setting [1], the concentration at half-maximal activity (AC50) was 29.1 µM [falling, single point]. Further, under setting [2], the AC50 is 23.1 µM [falling, single point].

For the compound `O=C1NC(Cc2ccccc2)c2nc3cc(F)ccc3c(=O)n2-c2ccc(Cl)cc21` (stereo unspecified), the cell number change is -41.6%. Further, the AC50 under setting [1] was 29.1 µM [falling, single point]. For the same compound, the AC50 under setting [2] was 0.00461 µM [rising, full curve, poor fit].

As for `O=C(COc1ncnc2ccc(Br)cc12)NCc1ccc2c(c1)OCO2`, the cell number change amounted to 52.5%. Besides, the AC50 under setting [1] was 2.31 µM [rising, partial curve].

Turning to `CCOC(=O)C1C(c2ccccc2Cl)NC(=O)N(C)C1(O)C(F)(F)F` (stereo unspecified), the cell number change is -17.9%. In addition, the AC50 under setting [2] was 29.1 µM [falling, partial curve, poor fit].

As for `CNC(=O)c1ccsc1NC(=O)CCS(=O)(=O)c1ccc(Cl)cc1`, the concentration at half-maximal activity (AC50) under setting [1] is 1.3 µM [rising, partial curve].

As to `O=C(CSCc1ccccc1Cl)NN1C(=O)c2ccccc2C1=O`, the cell number change was 64.7%. Also, the AC50 under setting [2] was 29.1 µM [rising, single point].

As for `CCc1cc(=O)oc2cc(C)cc(O)c12`, the cell number change was -32.4%. Also, the AC50 under setting [1] is 0.00461 µM [falling, full curve, poor fit]. In addition, under setting [2], the AC50 was 0.0517 µM [falling, full curve, poor fit].

For the compound `O=C(Nc1ccccc1Cc1ccccc1)c1ccccc1NS(=O)(=O)c1ccc(Cl)s1`, the cell number change was -17.5%. In addition, the AC50 under setting [1] was 5.17 µM [rising, single point]. Also, the AC50 under setting [2] was 3.26 µM [falling, partial curve].

`Cc1ccc(-c2nn3c(C)nnc3s2)cc1NC(=O)c1ccc(OC(C)C)cc1`: the cell number change is -24.2%. Also, the half-maximal activity concentration (AC50) under setting [2] is 1.46 µM [falling, partial curve].

With `CC(C)CC(C(=O)O)N1C(=O)C2C3C=CC(C2C1=O)C1C(=O)N(C(CC(C)C)C(=O)O)C(=O)C31` (stereo unspecified), the cell number change is -14.5%.

With `COc1ccc(-c2ccnc(SCC(=O)c3ccc(OC)c(OC)c3)n2)cc1`, the cell number change came to 16.7%. Moreover, the half-maximal activity concentration (AC50) under setting [2] was 20.6 µM [rising, single point].

Turning to `CC(C)NC(=S)N1CCN(Cc2ccc3c(c2)OCO3)CC1`, the cell number change was 105%. Moreover, the AC50 under setting [1] was 23.1 µM [rising, partial curve].

As to `CN(Cc1ccccc1)C(=O)COC(=O)c1cc(NS(=O)(=O)c2cccs2)ccc1O`, under setting [2], the AC50 is 6.51 µM [falling, single point].

In the case of `Nc1ncn(CC(=O)c2ccccc2)n1`, the cell number change is -9.85%. Also, the AC50 under setting [1] is 0.00461 µM [falling, full curve, poor fit]. Under setting [2], the concentration at half-maximal activity (AC50) is 0.00411 µM [falling, full curve, poor fit].

In the case of `COc1cccc(OCCn2cc(C=O)c3ccccc32)c1`, the cell number change was -16.1%. Further, the concentration at half-maximal activity (AC50) under setting [2] was 7.31 µM [rising, partial curve].

As for `COc1ccc(/C=N/NC(=O)c2nnn(-c3nonc3N)c2-c2cccs2)cc1OC`, the cell number change came to 23.6%. Besides, under setting [2], the concentration at half-maximal activity (AC50) was 0.146 µM [rising, full curve, poor fit].

As to `O=C(Nc1ccccc1N1CCOCC1)c1ccc(Br)o1`, under setting [1], the half-maximal activity concentration (AC50) was 1.3 µM [rising, single point].

Take `CN1C(c2ccccc2)CC(=NO)CC1c1ccccc1` (stereo unspecified): the cell number change was -40.2%. The concentration at half-maximal activity (AC50) under setting [1] was 32.6 µM [falling, single point].

Turning to `O=C1NC(=S)S/C1=C\c1ccc2ccccc2c1`, the cell number change was -0.874%. The AC50 under setting [2] was 0.13 µM [falling, full curve, poor fit].

As to `Cc1cc(C)c(C#N)c(SCS(=O)Cc2ccccc2)n1` (stereo unspecified), the cell number change was -27.9%. Under setting [2], the half-maximal activity concentration (AC50) is 7.31 µM [falling, partial curve].

`CC(C)CNC(=O)c1c(N)n(/N=C/c2cccnc2)c2nc3ccccc3nc12`: the cell number change worked out at 14.1%. Also, the AC50 under setting [2] is 0.146 µM [rising, full curve, poor fit].

Turning to `COc1ccc(-n2nc3cc(N)c(Br)cc3n2)cc1`, the cell number change is -28.8%. Also, the AC50 under setting [2] is 29.1 µM [falling, single point].

For the compound `Cc1cc(C(=O)OCC(=O)c2ccc(Cl)c([N+](=O)[O-])c2)c2cccc(C)c2n1`, the cell number change is -43.8%. Besides, the concentration at half-maximal activity (AC50) under setting [1] was 1.03 µM [falling, full curve]. Also, the half-maximal activity concentration (AC50) under setting [2] was 1.03 µM [falling, full curve].

As to `Cc1ccccc1OCc1nc2ccccc2c(=O)n1/N=C/c1cn[nH]c1-c1ccccc1`, the cell number change was -31%. Further, under setting [1], the AC50 was 32.6 µM [falling, single point]. In addition, the AC50 under setting [2] was 0.82 µM [rising, partial curve].

`CCN(CC)CCOC(=O)C1(c2ccccc2)CCOCC1`: the cell number change was -7.57%. Under setting [2], the concentration at half-maximal activity (AC50) is 1.3 µM [rising, full curve, poor fit].

Turning to `COc1ccc(CC(=O)NCc2n[nH]c(=S)n2-c2ccccc2OC)cc1`, the cell number change was -28.5%. For the same compound, the AC50 under setting [2] is 29.1 µM [falling, single point].

For the compound `CCS(=O)(=O)c1nc(S(=O)(=O)c2ccc(Cl)cc2)c(N2CCC3(CC2)OCCO3)s1`, the AC50 under setting [2] is 6.51 µM [rising, single point].

`CCN(CC)C(=O)CC(c1ccc2c(c1)OCO2)c1c(OC)cc(OC)c2c(-c3ccccc3)cc(=O)oc12` (stereo unspecified): the cell number change worked out at 1.31%. For the same compound, the concentration at half-maximal activity (AC50) under setting [2] is 2.31 µM [rising, partial curve].

In the case of `O=C(CSc1nnc(-c2ccco2)n1-c1ccccc1)N1CCN(C(=O)c2ccco2)CC1`, the cell number change is 134%. Further, the half-maximal activity concentration (AC50) under setting [1] was 18.4 µM [rising, partial curve]. Moreover, the AC50 under setting [2] was 16.4 µM [rising, partial curve].

Consider `CC(=O)Nc1sc(C)c(C)c1C(=O)OCC(=O)Nc1ccccc1`, for which the cell number change was -72.8%. Under setting [1], the AC50 was 20.6 µM [falling, partial curve]. Under setting [2], the AC50 was 18.4 µM [falling, partial curve].

Regarding `CC(C)N(C(=O)COC(=O)[C@@H]1CC(O)CN1S(=O)(=O)c1ccc(C(C)(C)C)cc1)C(C)C` (stereo partly specified), under setting [1], the concentration at half-maximal activity (AC50) is 6.51 µM [rising, partial curve, poor fit].

Consider `Cc1cc(OCC(=O)NCC(c2cccs2)N2CCOCC2)ccc1C(C)C` (stereo unspecified), for which the cell number change is -24.1%. Further, under setting [2], the AC50 is 20.6 µM [falling, partial curve].

On to `C=CCNC(=O)c1ccc(C)cc1Cl`, for which the cell number change amounted to 12.5%.

Take `Cc1ccc(C)c(NS(=O)(=O)c2ccc(OCC(=O)N3CCCC3)cc2)c1`: the concentration at half-maximal activity (AC50) under setting [1] is 0.0731 µM [rising, full curve, poor fit].

Take `O=C(O)COc1ccccc1/C=N/Nc1ccc(S(=O)(=O)Nc2ccc(Cl)cc2)cc1[N+](=O)[O-]`: under setting [1], the concentration at half-maximal activity (AC50) was 0.517 µM [rising, partial curve].

`COC(=O)[C@@]12CCCCN1[C@H](c1ccc(-c3cc(C(C)=O)cs3)cc1)[C@H]1C(=O)N(C)C(=O)[C@H]12`: the cell number change is -53.8%. The AC50 under setting [1] was 14.6 µM [falling, partial curve]. Further, under setting [2], the AC50 is 6.51 µM [falling, single point].

In the case of `O=C(CCS(=O)(=O)c1ccc(Cl)cc1)NCCN1C(=O)S/C(=C\c2ccccc2F)C1=O`, the cell number change is 1.18%. Besides, the half-maximal activity concentration (AC50) under setting [2] was 29.1 µM [falling, single point].

Turning to `COc1ccc(-n2ncc3c(=O)n(CC(=O)Nc4ccc(S(=O)(=O)N5CCOCC5)cc4)cnc32)cc1`, the cell number change was 9.38%. For the same compound, the concentration at half-maximal activity (AC50) under setting [2] is 0.461 µM [rising, single point].

As to `Cc1ccc(OCC(=O)N2CCN(c3ccc([N+](=O)[O-])c(N4CCOCC4)c3)CC2)cc1`, the cell number change turned out to be 72.5%. Also, the AC50 under setting [1] was 3.66 µM [falling, partial curve].

Consider `O=C1CCCC2=C1C(c1cccc(O)c1)c1c(ccc3ncccc13)N2` (stereo unspecified), for which the cell number change is -13.1%.

Take `CC(C)(C)N1NC2(CCCCC2)NC1=S`: the cell number change was -39.3%. The AC50 under setting [1] is 20.6 µM [falling, single point].

`COc1ccc(N=C2SC(CC(=O)Nc3ccccc3)C(=O)N2Cc2ccccn2)cc1` (stereo unspecified): the cell number change amounted to 57.6%. Further, under setting [1], the AC50 was 0.0146 µM [rising, full curve]. Also, the AC50 under setting [2] is 0.082 µM [rising, full curve].

Turning to `NC(=O)COc1ccc(/C=N\NC(=O)c2ccc(-c3ccccc3)cc2)cc1`, the cell number change was 15%. For the same compound, under setting [2], the AC50 is 23.1 µM [rising, partial curve, poor fit].

As for `CN(c1ccccc1)S(=O)(=O)c1cccc(NC(=O)c2cccc(C#N)c2)c1`, the cell number change came out at 1.1%. In addition, under setting [2], the half-maximal activity concentration (AC50) is 1.84 µM [rising, partial curve].

With `O/N=C/c1ccc(OCc2ccccc2F)c(Cl)c1`, under setting [1], the AC50 was 3.66 µM [rising, single point].

`COc1ccc(N2CCN(S(=O)(=O)CCNC(=O)c3cccs3)CC2)cc1`: the cell number change was determined as 10%. Under setting [2], the AC50 was 0.58 µM [rising, full curve, poor fit].

As to `CCc1ccc(/C=C2\Oc3ccc(C(=O)OC)cc3C2=O)cc1`, the cell number change amounted to 8.48%. Also, the AC50 under setting [2] was 0.461 µM [rising, single point].
